According to patent US20140193455A1, “PHARMACEUTICAL COMPOSITION FOR PREVENTION OR TREATMENT OF STEROID-INDUCED DIABETES AND HEALTH FUNCTIONAL FOOD” (priority 2013, published 2014):
At least one compound was matched to its structure with a doubt left.

Assays:
Format in all cases: cell-based, rat
INS-1 cells = test: Measurement of nuclear DNA fragmentation (apoptosis marker); conditions: treated alone for 24 hours; FIG. 1B
MKP-1 = test: Western blot analysis of MKP-1 protein expression in INS-1 cells; conditions: treated alone for 4 hours; FIG. 2
ERK-1/2 = test: Western blot analysis of ERK-1/2 phosphorylation in INS-1 cells; conditions: treated alone for 4 hours; FIG. 2
PKB = test: Western blot analysis of PKB phosphorylation in INS-1 cells; conditions: treated alone for 4 hours; FIG. 2

## C[C@@H]1C[C@H]2[C@@H]3CCC4=CC(=O)C=C[C@]4(C)[C@@]3(F)[C@@H](O)C[C@]2(C)[C@@]1(O)C(=O)CO [Dex, dexamethasone]
INS-1 cells
  nuclear DNA fragmentation of INS-1 cells: increased
MKP-1
  expression of MKP-1 protein: greatly increased
ERK-1/2
  phosphorylation of ERK-1/2: greatly decreased
PKB
  phosphorylation of PKB: greatly decreased
